Assay results as given in publication PMC12317139.
Results are given in words; binding and its absence hold for the method and conditions named. In cells and extracts the contact can be indirect. Some results given as binding are weak or reduced against the parent protein; the word gives no strength. Tags and fused reporters may be left off the sequences shown.

Amino acid sequences for entries named in this document (tags omitted).
UniProt Q9Z140: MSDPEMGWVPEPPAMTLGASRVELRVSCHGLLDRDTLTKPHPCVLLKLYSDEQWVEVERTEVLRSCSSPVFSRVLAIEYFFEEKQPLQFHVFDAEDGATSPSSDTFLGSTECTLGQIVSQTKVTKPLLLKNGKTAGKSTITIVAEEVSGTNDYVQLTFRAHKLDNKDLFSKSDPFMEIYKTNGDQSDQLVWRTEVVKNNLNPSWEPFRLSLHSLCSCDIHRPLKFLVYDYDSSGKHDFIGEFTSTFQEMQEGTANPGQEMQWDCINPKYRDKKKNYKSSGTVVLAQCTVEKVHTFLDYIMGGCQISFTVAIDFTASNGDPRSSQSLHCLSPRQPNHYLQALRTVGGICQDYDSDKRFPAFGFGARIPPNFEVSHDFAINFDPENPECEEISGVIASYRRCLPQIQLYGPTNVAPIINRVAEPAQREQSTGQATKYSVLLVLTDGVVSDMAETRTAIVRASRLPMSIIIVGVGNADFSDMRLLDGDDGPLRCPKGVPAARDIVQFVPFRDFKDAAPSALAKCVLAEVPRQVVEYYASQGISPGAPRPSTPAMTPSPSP

Biological target: T1, TRPM3 with a C-terminal RFP tag (TRPM3-RFP) (mouse) (UniProt J9SQF3)
T1 sequence: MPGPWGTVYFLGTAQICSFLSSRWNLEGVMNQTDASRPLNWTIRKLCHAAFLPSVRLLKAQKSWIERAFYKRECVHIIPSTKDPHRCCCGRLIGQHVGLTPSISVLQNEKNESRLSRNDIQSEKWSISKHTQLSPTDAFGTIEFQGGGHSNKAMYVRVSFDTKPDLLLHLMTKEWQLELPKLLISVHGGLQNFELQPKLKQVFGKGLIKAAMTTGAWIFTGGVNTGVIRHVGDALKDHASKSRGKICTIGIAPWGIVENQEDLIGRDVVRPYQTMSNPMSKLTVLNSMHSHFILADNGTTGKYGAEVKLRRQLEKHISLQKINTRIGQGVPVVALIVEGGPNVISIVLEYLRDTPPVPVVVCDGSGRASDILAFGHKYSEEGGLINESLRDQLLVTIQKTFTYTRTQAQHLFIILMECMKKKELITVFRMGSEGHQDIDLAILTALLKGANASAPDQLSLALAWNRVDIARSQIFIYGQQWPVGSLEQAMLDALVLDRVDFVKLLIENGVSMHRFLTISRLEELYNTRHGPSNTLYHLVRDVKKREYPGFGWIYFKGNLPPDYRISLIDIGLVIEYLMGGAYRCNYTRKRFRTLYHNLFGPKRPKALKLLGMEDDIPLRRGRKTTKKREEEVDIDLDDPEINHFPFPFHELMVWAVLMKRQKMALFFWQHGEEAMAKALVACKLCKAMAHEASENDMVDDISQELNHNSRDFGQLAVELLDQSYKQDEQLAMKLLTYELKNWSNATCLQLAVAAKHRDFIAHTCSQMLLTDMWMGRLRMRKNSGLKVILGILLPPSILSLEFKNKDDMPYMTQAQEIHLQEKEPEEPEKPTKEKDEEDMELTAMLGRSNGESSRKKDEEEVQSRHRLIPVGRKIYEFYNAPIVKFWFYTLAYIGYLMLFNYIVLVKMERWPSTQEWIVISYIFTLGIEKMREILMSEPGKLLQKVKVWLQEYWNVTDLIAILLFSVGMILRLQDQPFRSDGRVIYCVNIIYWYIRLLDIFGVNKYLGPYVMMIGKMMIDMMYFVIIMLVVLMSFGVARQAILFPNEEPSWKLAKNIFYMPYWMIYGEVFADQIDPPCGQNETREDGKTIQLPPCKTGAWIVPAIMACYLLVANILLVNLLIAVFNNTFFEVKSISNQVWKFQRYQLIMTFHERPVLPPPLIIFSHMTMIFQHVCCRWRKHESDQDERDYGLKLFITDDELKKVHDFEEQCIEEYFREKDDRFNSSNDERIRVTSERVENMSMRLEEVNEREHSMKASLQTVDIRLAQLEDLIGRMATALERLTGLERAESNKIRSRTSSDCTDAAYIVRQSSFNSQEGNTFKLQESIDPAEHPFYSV
Assay: co-IP; HEK293T cells co-transfected; lysate incubated with anti-RFP or anti-Flag antibody (2 μg, 4 °C, 4 h), then Protein A/G PLUS-Agarose overnight at 4 °C; five PBS washes; western blot with anti-Flag / anti-RFP; IgG control

Copine-6 carrying a C-terminal Flag-tag (Copine-6-Flag) (from UniProt Q9Z140 1-557)
binding: binds
